Cell number after 72 h of treatment

Data from the primary screen of doi:10.1371/journal.pone.0140310, rounded.

Every entry is a combination with indole-3-carbinol at 4000 nM: OCc1c[nH]c2ccccc12

Compounds and concentrations:
T0901317 (7000 nM): O=S(=O)(c1ccccc1)N(CC(F)(F)F)c1ccc(C(O)(C(F)(F)F)C(F)(F)F)cc1
fludarabine (1000 nM): Nc1nc(F)nc2c1ncn2[C@@H]1O[C@H](CO)[C@@H](O)[C@@H]1O
bortezomib (5 nM): CC(C)C[C@H](NC(=O)[C@H](Cc1ccccc1)NC(=O)c1cnccn1)B(O)O
ruxolitinib (5000 nM): N#CC[C@H](C1CCCC1)n1cc(-c2ncnc3[nH]ccc23)cn1
ENMD-2076 (200 nM): Cc1cc(Nc2cc(N3CCN(C)CC3)nc(/C=C/c3ccccc3)n2)n[nH]1
GW9662 (10000 nM): O=C(Nc1ccccc1)c1cc([N+](=O)[O-])ccc1Cl
cediranib (2000 nM): COc1cc2c(Oc3ccc4[nH]c(C)cc4c3F)ncnc2cc1OCCCN1CCCC1
PF-562271 (400 nM): CN(c1ncccc1CNc1nc(Nc2ccc3c(c2)CC(=O)N3)ncc1C(F)(F)F)S(C)(=O)=O
sorafenib (2000 nM): CNC(=O)c1cc(Oc2ccc(NC(=O)Nc3ccc(Cl)c(C(F)(F)F)c3)cc2)ccn1
darinaparsin (2000 nM): C[As](C)SC[C@H](NC(=O)CC[C@H](N)C(=O)O)C(=O)NCC(=O)O
GSK0660 (5000 nM): COC(=O)c1sccc1S(=O)(=O)Nc1ccc(Nc2ccccc2)cc1OC
TCS401 (8330 nM): O=C(O)C(=O)Nc1sc2c(c1C(=O)O)CCNC2
STA-4783 (30 nM): CN(NC(=O)CC(=O)NN(C)C(=S)c1ccccc1)C(=S)c1ccccc1
BI-D1870 (1000 nM): CC(C)CCN1c2nc(Nc3cc(F)c(O)c(F)c3)ncc2N(C)C(=O)C1C (stereo not given)
GW2580 (5000 nM): COc1ccc(COc2ccc(Cc3cnc(N)nc3N)cc2OC)cc1
pazopanib (2000 nM): Cc1ccc(Nc2nccc(N(C)c3ccc4c(C)n(C)nc4c3)n2)cc1S(N)(=O)=O
BMS-536924 (1000 nM): Cc1cc(N2CCOCC2)cc2[nH]c(-c3c(NC[C@@H](O)c4cccc(Cl)c4)cc[nH]c3=O)nc12
decitabine (500 nM): Nc1ncn([C@H]2C[C@H](O)[C@@H](CO)O2)c(=O)n1
nilotinib (1000 nM): Cc1cn(-c2cc(NC(=O)c3ccc(C)c(Nc4nccc(-c5cccnc5)n4)c3)cc(C(F)(F)F)c2)cn1
SU6656 (2000 nM): CN(C)S(=O)(=O)c1ccc2c(c1)/C(=C/c1cc3c([nH]1)CCCC3)C(=O)N2
SNS-314 (4 nM): O=C(Nc1cccc(Cl)c1)Nc1ncc(CCNc2ncnc3ccsc23)s1
dasatinib (20 nM): Cc1nc(Nc2ncc(C(=O)Nc3c(C)cccc3Cl)s2)cc(N2CCN(CCO)CC2)n1
KU-55933 (5000 nM): O=c1cc(-c2cccc3c2Sc2ccccc2S3)oc(N2CCOCC2)c1
PLX4720 (400 nM): CCCS(=O)(=O)Nc1ccc(F)c(C(=O)c2c[nH]c3ncc(Cl)cc23)c1F
OSU-03012 (5000 nM): NCC(=O)Nc1ccc(-n2nc(C(F)(F)F)cc2-c2ccc3c(ccc4ccccc43)c2)cc1
midostaurin (400 nM): CO[C@@H]1[C@H](N(C)C(=O)c2ccccc2)C[C@H]2O[C@]1(C)n1c3ccccc3c3c4c(c5c6ccccc6n2c5c31)C(=O)NC4
etoposide (100 nM): COc1cc([C@@H]2c3cc4c(cc3[C@@H](O[C@@H]3O[C@@H]5CO[C@@H](C)O[C@H]5[C@H](O)[C@H]3O)[C@H]3COC(=O)[C@H]23)OCO4)cc(OC)c1O

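The test systems are human melanoma cell lines, treated with a pair of drugs for 72 h and then stained and imaged. Each value is the count of nuclei relative to DMSO-treated wells, in %, so that 100 equals the control. Concentrations were fixed for each drug; these are the higher of two levels. The file gives one value for each pair and line, without errors, so small differences may be noise.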
An unselected part of the screen is shown.
An entry leaves out what has no value listed here.
A dash means that no value is listed here.

Second drug,WM451Lu,COLO 792,COLO 800,COLO 829,WM3619,C32
SU6656,88.6,77.6,59.3,73.0,91.8,96.4
ruxolitinib,83.3,111,133,98.6,77.3,105
midostaurin,105,81.7,18.5,72.1,84.1,85.3
KU-55933,103,122,99.9,116,72.4,106
fludarabine,90.3,60.7,76.6,75.7,77.4,86.2
dasatinib,63.6,52.6,63.9,43.3,-,89.2
bortezomib,25.1,34.5,108,13.4,5.2,29.8
PLX4720,71.2,105,77.9,80.2,91.1,73.4
OSU-03012,100,70.6,70.0,72.1,87.2,96.1
PF-562271,51.6,74.1,56.1,62.7,68.5,63.4
cediranib,86.3,69.2,66.9,94.1,94.3,84.9
STA-4783,94.9,26.2,21.6,50.7,6.4,19.1
etoposide,124,124,130,118,66.2,101
GW9662,81.6,76.7,117,65.3,47.8,76.9
decitabine,100,86.2,65.2,76.8,109,89.8
pazopanib,78.7,84.7,28.6,93.4,79.0,113
SNS-314,55.7,65.2,61.2,88.0,89.4,70.3
BI-D1870,70.0,88.2,86.9,89.3,72.4,103
GSK0660,96.0,129,74.9,96.7,110,123
darinaparsin,83.5,76.5,82.2,78.5,78.0,78.9
sorafenib,88.3,108,118,113,114,89.9
BMS-536924,98.5,44.1,51.2,113,84.1,78.4
GW2580,95.4,92.8,114,111,100,119
T0901317,92.0,85.7,86.9,83.2,133,90.8
nilotinib,98.1,98.9,62.7,141,91.8,101
ENMD-2076,87.4,65.1,95.9,81.5,103,88.9
TCS401,104,108,109,93.4,129,86.5

Some entries from above, unchanged:

* KU-55933 : WM451Lu: 103; COLO 792: 122; COLO 800: 99.9; COLO 829: 116; WM3619: 72.4; C32: 106
* ruxolitinib : WM451Lu: 83.3; COLO 792: 111; COLO 800: 133; COLO 829: 98.6; WM3619: 77.3; C32: 105